These are yes or no findings as the source states them, for the method shown. In cells and extracts the contact can be indirect. Some results given as binding are weak or reduced against the parent protein; the word gives no strength.
Biological target: platelet-derived growth factor receptor beta (PDGFR-β) (UniProt P05622)
Assay: co-IP; BMEC lysate (0.3% CHAPS, 2 mM EDTA, 40 mM HEPES pH 7.4), with or without PDGF-BB treatment; anti-PDGFR-β antibody overnight at 4 °C, Protein A + G Sepharose; immunoblot for FAK, TLN1 and PDGFR-β

Protein sequences, listed by entry. Tags and fused reporters are not part of them. Residues count along the entry.
UniProt P05622, residues 32-1098: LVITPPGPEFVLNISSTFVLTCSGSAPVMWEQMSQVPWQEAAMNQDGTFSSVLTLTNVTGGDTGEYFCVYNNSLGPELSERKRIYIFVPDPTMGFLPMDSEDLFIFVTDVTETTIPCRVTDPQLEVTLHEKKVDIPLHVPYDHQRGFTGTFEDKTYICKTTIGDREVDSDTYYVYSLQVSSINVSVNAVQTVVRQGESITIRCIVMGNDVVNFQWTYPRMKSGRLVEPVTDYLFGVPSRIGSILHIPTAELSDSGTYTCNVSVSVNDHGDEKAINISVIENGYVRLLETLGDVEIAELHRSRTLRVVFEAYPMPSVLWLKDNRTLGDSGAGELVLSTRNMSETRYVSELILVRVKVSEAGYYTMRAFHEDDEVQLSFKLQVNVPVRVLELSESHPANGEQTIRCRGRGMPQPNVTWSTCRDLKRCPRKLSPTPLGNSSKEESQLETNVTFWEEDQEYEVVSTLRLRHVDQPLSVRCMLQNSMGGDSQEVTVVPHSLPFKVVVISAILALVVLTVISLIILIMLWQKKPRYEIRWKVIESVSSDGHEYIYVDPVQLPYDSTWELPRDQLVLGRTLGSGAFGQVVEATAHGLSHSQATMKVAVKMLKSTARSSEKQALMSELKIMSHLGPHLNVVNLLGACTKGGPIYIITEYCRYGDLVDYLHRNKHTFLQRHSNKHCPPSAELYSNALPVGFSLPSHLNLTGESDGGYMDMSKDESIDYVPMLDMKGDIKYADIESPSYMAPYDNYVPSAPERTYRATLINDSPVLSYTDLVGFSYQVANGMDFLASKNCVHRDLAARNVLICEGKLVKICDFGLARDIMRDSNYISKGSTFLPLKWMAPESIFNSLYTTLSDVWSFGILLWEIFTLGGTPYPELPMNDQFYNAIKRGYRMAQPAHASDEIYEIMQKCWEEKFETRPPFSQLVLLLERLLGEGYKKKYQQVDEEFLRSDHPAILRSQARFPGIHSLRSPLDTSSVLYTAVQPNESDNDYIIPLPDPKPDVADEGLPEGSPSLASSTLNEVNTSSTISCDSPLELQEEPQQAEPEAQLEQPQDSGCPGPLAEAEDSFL
UniProt P34152: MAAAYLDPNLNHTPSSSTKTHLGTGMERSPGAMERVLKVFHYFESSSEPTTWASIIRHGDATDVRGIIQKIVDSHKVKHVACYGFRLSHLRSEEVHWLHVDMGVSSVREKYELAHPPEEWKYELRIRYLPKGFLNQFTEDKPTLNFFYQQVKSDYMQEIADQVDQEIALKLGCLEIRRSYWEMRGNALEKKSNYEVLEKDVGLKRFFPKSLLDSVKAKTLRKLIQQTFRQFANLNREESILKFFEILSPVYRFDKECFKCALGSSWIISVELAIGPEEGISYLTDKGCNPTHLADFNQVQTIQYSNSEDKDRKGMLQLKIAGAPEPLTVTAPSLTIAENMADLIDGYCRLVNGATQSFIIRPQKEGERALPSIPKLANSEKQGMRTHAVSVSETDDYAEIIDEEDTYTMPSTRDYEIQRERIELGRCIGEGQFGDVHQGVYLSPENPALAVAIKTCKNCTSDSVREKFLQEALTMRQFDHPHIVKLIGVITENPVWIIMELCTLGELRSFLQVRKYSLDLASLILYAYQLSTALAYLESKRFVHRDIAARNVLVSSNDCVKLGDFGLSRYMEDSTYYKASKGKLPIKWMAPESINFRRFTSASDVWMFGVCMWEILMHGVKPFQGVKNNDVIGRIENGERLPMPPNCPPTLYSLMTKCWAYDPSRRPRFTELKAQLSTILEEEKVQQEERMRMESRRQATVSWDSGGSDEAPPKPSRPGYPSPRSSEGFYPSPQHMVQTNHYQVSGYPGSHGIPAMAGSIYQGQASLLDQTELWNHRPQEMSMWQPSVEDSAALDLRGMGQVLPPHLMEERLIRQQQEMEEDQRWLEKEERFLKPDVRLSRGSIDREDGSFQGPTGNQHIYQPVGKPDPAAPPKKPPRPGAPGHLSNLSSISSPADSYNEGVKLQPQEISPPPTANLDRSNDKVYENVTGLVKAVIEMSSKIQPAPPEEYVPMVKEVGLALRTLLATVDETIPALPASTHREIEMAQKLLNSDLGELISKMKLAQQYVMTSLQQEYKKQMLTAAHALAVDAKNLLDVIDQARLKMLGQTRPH
UniProt P26039: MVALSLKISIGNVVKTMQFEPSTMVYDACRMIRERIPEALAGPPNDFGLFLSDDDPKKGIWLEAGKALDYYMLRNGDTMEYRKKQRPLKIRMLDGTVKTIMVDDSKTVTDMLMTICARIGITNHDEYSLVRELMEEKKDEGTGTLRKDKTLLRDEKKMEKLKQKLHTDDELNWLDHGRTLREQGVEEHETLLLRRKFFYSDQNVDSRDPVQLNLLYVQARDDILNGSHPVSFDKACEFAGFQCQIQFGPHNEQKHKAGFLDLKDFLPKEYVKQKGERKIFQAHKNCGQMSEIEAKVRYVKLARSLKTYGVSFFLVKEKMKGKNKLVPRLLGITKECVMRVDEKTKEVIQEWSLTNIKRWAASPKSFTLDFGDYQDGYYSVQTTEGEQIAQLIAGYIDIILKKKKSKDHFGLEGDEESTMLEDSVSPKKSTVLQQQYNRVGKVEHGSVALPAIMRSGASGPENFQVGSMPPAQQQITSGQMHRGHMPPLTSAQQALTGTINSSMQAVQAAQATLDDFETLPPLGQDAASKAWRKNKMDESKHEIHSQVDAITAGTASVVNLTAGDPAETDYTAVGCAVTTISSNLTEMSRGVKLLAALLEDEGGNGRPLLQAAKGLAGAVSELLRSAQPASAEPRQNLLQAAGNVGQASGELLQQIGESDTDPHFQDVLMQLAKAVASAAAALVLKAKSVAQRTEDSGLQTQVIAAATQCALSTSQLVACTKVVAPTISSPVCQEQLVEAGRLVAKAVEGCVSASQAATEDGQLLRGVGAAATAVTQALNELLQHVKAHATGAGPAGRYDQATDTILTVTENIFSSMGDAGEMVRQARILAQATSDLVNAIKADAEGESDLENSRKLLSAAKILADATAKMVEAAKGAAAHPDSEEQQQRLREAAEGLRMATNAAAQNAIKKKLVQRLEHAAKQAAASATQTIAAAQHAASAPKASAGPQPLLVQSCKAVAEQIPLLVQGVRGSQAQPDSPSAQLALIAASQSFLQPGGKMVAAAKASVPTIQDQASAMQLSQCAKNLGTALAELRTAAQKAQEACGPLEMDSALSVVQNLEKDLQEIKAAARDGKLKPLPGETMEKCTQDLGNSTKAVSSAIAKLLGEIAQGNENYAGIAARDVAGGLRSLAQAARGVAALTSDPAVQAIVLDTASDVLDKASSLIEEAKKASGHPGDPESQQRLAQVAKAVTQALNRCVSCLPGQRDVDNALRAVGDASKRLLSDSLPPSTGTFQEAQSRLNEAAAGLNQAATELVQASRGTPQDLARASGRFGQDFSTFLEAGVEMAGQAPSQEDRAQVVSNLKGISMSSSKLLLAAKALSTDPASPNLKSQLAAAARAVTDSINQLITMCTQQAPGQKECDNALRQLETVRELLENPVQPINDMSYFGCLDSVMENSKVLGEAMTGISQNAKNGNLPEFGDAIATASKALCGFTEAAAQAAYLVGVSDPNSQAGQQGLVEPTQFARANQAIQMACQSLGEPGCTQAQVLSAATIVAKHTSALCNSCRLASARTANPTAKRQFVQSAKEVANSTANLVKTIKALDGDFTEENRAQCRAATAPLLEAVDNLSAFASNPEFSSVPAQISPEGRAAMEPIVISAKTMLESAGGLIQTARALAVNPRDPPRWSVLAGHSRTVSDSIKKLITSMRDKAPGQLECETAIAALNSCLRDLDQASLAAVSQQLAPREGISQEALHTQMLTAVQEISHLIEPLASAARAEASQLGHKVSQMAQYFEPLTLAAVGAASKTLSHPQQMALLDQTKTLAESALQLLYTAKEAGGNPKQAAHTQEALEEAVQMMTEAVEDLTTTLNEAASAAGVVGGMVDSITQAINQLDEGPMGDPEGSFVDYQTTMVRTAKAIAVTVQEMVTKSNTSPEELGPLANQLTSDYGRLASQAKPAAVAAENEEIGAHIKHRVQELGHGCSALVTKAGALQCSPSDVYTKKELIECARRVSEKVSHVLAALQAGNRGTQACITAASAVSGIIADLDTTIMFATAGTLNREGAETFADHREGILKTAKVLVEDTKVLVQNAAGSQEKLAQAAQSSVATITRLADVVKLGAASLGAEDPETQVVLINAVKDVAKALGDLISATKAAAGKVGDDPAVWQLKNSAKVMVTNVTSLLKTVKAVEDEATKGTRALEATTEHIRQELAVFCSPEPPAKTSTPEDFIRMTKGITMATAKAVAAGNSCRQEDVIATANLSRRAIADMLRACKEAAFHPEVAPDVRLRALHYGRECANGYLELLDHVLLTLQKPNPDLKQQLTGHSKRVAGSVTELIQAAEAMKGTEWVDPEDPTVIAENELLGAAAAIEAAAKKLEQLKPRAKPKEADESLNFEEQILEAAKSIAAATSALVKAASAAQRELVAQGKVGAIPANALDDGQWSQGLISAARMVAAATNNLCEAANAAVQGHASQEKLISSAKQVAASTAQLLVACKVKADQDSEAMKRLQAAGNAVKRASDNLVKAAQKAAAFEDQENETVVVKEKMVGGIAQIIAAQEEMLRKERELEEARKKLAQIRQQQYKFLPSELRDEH

binding | Substance
binds | focal adhesion kinase (FAK) (from UniProt P34152 1-1052) (enzyme)
binds | talin1 (from UniProt P26039 1-2541)

Source: publication PMC9420732
